PubChem BioAssay AID1259308 | NCATS | 2017

- Assay: 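Candidate targets for better recombinant protein yield in mammalian cells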 (primary screen)
- Cell system: human HEK293 embryonic kidney cells stably expressing firefly luciferase (HEK-CMV-Luc2-Hygro)
- Knock-down reagent: single siRNA against human genes, 0.8 pmol siRNA per well
- Time to read-out: 72 h
- Read-out: 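Reporter luminescence and viable-cell signal on separate replicate plates, given as percent of non-targeting control and median/MAD z-scores, plus per-cell luciferase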
- Reading the numbers: total luciferase, z-score: higher = more reporter protein produced
- Active means: 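Active when the median/MAD z-score for overall luciferase is greater than 3; a gene was taken forward for validation with new siRNAs if at least two of its three siRNAs passed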
- Meaning of the calls: active = raised luciferase; inactive = no rise
This is one part, drawn at random, of about 59,000 reagents tested. Of all reagents, about 1,510 (2.6%) are marked active. 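Calls use total luciferase alone and ignore viability, so some active siRNAs may act by altering cell number.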 Reagents against one gene are numbered here. Further read-outs or replicates are left out here.

total luciferase, z-score, by gene knocked down and reagent
HMGB3 (GeneID 3149): #1 2.27 inactive; #2 1.35 inactive; #3 -0.457 inactive
TPM3 (GeneID 7170): #1 3.69 active; #2 0.363 inactive; #3 2.85 inactive
PROM2 (GeneID 150696): #1 1.16 inactive; #2 2.42 inactive; #3 3.77 active
SUOX (GeneID 6821): #1 1.24 inactive; #2 0.206 inactive; #3 1.25 inactive
FABP5P9 (GeneID 642956): #1 0.655 inactive; #2 1.24 inactive; #3 0.82 inactive
MAB21L1 (GeneID 4081): #1 -0.54 inactive; #2 0.557 inactive; #3 -1.56 inactive
OR7A17 (GeneID 26333): #1 -0.961 inactive; #2 0.296 inactive; #3 -0.825 inactive
GCSAM (GeneID 257144): #1 0.293 inactive; #2 0.147 inactive; #3 2.86 inactive
CDK4 (GeneID 1019): #1 1.04 inactive; #2 -0.417 inactive; #3 -0.7 inactive
LYPD1 (GeneID 116372): #1 0.175 inactive; #2 0.0869 inactive; #3 2.02 inactive
POMGNT1 (GeneID 55624): #1 -0.315 inactive; #2 3.51 active; #3 0.471 inactive
CHERP (GeneID 10523): #1 4.37 active; #2 2.96 inactive; #3 -0.0563 inactive
ARHGEF10 (GeneID 9639): #1 2.52 inactive; #2 -0.538 inactive; #3 -0.796 inactive
DCAF8L2 (GeneID 347442): #1 0.412 inactive; #2 1.42 inactive; #3 0.398 inactive
SETMAR (GeneID 6419): #1 -0.68 inactive; #2 -2.09 inactive; #3 0.095 inactive
PLEKHG7 (GeneID 440107): #1 -1.73 inactive; #2 -0.873 inactive; #3 0.736 inactive; #4 0.118 inactive; #5 0.967 inactive; #6 0.145 inactive
C5orf63 (GeneID 401207): #1 3.31 active; #2 -2.6 inactive; #3 0.74 inactive
FICD (GeneID 11153): #1 -1.19 inactive; #2 -0.396 inactive; #3 -0.0868 inactive

Taken from above.
Under “total luciferase, z-score”, HMGB3 (GeneID 3149) #1 has 2.27
Under “activity call”, FABP5P9 (GeneID 642956) #1 reads inactive
Under “activity call”, SUOX (GeneID 6821) #2 is entered as inactive
LYPD1 (GeneID 116372) #2, activity call: inactive
